Laboratory results: patent publication US20070105874A1, “Anti-Tumor Methods Using Multi Drug Resistance Independent Synthetic HSP90 Inhibitors” (Conforma Therapeutics Corporation, priority 2005, published 2007)
Some entries share one result that the patent states for a list of compounds.

Tested on: P-gp over-expressing MES SA Dx5 and NCI/ADR-Res cells
Assay: MTS cytotoxicity assay in P-gp over-expressing versus non-expressing cell lines
Assay type: cell-based
Details: client protein degradation, biomarker secretion and cytotoxicity assays

## CO[C@H]1/C=C\C=C(/C)C(=O)NC2=CC(=O)C(NCCN(C)C)=C(C[C@@H](C)C[C@H](OC)[C@H](O)[C@@H](C)/C=C(\C)[C@@H]1OC(N)=O)C2=O [Compound 17-DMAG, (4E,6Z,8S,9S,10E,12S,13R,14S,16R)-19-(2-(dimethylamino)ethylamino)-13-hydroxy-8,14-dimethoxy-4,10,12,16-tetramethyl-3,20,22-trioxo-2-azabicyclo[16.3.1]docosa-1(21),4,6,10,18-pentaen-9-yl carbamate]
  increase of IC50 on overexpression of P-glycoprotein: ≥ 500 fold
